Values from PubChem BioAssay AID1224826 (NIAID, 2016)
Screen: 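Regulators of Tlr4 signalling leading to Tnf-alpha expression in macrophages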 (primary screen). Cells: RAW264.7 G9 macrophages from mouse bearing reporters for p65 (GFP) and the Tnf promoter (mCherry). Reagent: siRNA pool against mouse genes, 100 nM. Time to read-out: 16 h of LPS stimulation, after 2 days of siRNA transfection. Conditions: bacterial lipopolysaccharide (Salmonella minnesota R595), 10 ng/ml. Read-out: 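Nuclear mCherry signal of the Tnf promoter reporter measured by imaging after background removal, scaled to each plate median and turned into robust z-scores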. Scale: Tnf reporter robust z-score: higher = stronger Tnf promoter reporter signal after LPS; Tnf reporter intensity: higher = stronger Tnf promoter reporter signal. Call rule: 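a well counts as active at a score of -1.3 or below (Tlr4 knock-down control median) or above 3 (raised signal); controls and wells holding fewer than 50 cells are excluded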. Meaning of the calls: active = Tnf reporter clearly lowered or raised; inactive = no clear change in Tnf reporter.
The whole screen tested about 17,000 reagents; shown is a part drawn at random. Over the whole deposit, about 1,110 (6.6%) are marked active. 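Active means lowered or raised reporter signal; replicate intensities are raw and not normalised per plate.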 A number with no mark means an inactive call. Further read-outs or replicates are left out here.

Target gene | PubChem SID | Tnf reporter robust z-score | fewer than 50 cells in well | Tnf reporter intensity, replicate 1
Crlf2 | SID315471846 | 0.11 | enough cells in well | 259
Rps26 | SID315470583 | -0.27 | enough cells in well | 126
Vamp3 | SID315469979 | -0.08 | enough cells in well | 117
Rxfp3 | SID315479433 | -1.27 | enough cells in well | 103
Coa5 | SID315475255 | – | fewer than 50 cells per well; well left out of calls | 175
Coa5 | SID315475256 | 0.64 | enough cells in well | 210
Dnajc28 | SID315479892 | 0.74 | enough cells in well | 128
Dmtn | SID315466517 | -0.24 | enough cells in well | 230
Or4f60 | SID315479953 | -0.36 | enough cells in well | 190
Etv5 | SID315476420 | 0.23 | enough cells in well | 247
Phgdh | SID315479301 | 0.09 | enough cells in well | 244
Babam2 | SID315476661 | -1.07 | enough cells in well | 89.3
Rhobtb2 | SID315479886 | 0.45 | enough cells in well | 405
Lce1m | SID315472287 | 2.72 | enough cells in well | 232
Dgat1 | SID315466317 | -1.17 | enough cells in well | 142
Tle2 | SID315469737 | 1.25 | enough cells in well | 325
Tmem144 | SID315474105 | 2.49 | enough cells in well | 347
Gypc | SID315474276 | -0.29 | enough cells in well | 230
Dsn1 | SID315472726 | 0.25 | enough cells in well | 240
Tgm4 | SID315481634 | -0.47 | enough cells in well | 160
Serinc3 | SID315470497 | -0.62 | enough cells in well | 193
Magea9-ps | SID315477468 | -0.91 | enough cells in well | 168
Mmp8 | SID315467951 | 0.22 | enough cells in well | 234
Cyfip1 | SID315469229 | 1.04 | enough cells in well | 273
Dnajc1 | SID315466350 | 1.76 | enough cells in well | 307
Tmprss15 | SID315468726 | -0.19 | enough cells in well | 229
Nktr | SID315468179 | -0.98 | enough cells in well | 172
Bcl3 | SID315465618 | -0.62 | enough cells in well | 97.9
Dnmt3b | SID315466362 | -0.27 | enough cells in well | 199
Rpl7a | SID315470540 | – | fewer than 50 cells per well; well left out of calls | 108
Ffar4 | SID315476585 | -0.87 | enough cells in well | 168
Rhobtb3 | SID315474703 | -0.12 | enough cells in well | 268
Cic | SID315474293 | -0.9 | enough cells in well | 125
Clns1a | SID315465990 | 0.99 | enough cells in well | 223
Hsph1 | SID315467323 | -0.37 | enough cells in well | 231

Continued (9 carried over from the part before).
Target gene | PubChem SID | Tnf reporter robust z-score | fewer than 50 cells in well | Tnf reporter intensity, replicate 1
Nktr | SID315468179 | -0.98 | enough cells in well | 172
Bcl3 | SID315465618 | -0.62 | enough cells in well | 97.9
Dnmt3b | SID315466362 | -0.27 | enough cells in well | 199
Rpl7a | SID315470540 | – | fewer than 50 cells per well; well left out of calls | 108
Ffar4 | SID315476585 | -0.87 | enough cells in well | 168
Rhobtb3 | SID315474703 | -0.12 | enough cells in well | 268
Cic | SID315474293 | -0.9 | enough cells in well | 125
Clns1a | SID315465990 | 0.99 | enough cells in well | 223
Hsph1 | SID315467323 | -0.37 | enough cells in well | 231
Tmem134 | SID315472760 | – | fewer than 50 cells per well; well left out of calls | 207
Brinp3 | SID315477925 | -0.01 | enough cells in well | 213
Nxf2 | SID315475826 | -1.26 | enough cells in well | 122
Zfp358 | SID315477115 | 0.66 | enough cells in well | 161
Adamts1 | SID315465298 | – | fewer than 50 cells per well; well left out of calls | 68.2
Or5ae2 | SID315480094 | -0.51 | enough cells in well | 154
Or1r1 | SID315480357 | -1.94 (active) | enough cells in well | 68.7
Vmn1r236 | SID315477311 | 2.74 | enough cells in well | 191
Nrp1 | SID315468244 | 0.07 | enough cells in well | 221
Syk | SID315469547 | 0.31 | enough cells in well | 194
Ifna7 | SID315467391 | -0.17 | enough cells in well | 236
Tma16 | SID315472338 | 1.87 | enough cells in well | 266
Sec22c | SID315477934 | 1.88 | enough cells in well | 146
Ptp4a1 | SID315468791 | -0.01 | enough cells in well | 264
Sarm1 | SID315479370 | 0.87 | enough cells in well | 188
Pkd1l2 | SID315475355 | -1.16 | enough cells in well | 88
Rbm39 | SID315477245 | -0.21 | enough cells in well | 120
Gimap5 | SID315481033 | 0.7 | enough cells in well | 209
Rspo1 | SID315477404 | – | fewer than 50 cells per well; well left out of calls | 177
Tuft1 | SID315469880 | -0.63 | enough cells in well | 92.8
4930566N20Rik | SID315475221 | – | fewer than 50 cells per well; well left out of calls | 200
Obox5 | SID315479901 | 1.7 | enough cells in well | 325
Ppcs | SID315476547 | 0.67 | enough cells in well | 234
Rrp1 | SID315468200 | 1.06 | enough cells in well | 267
Dapk3 | SID315466264 | 0.17 | enough cells in well | 166
Zfp692 | SID315476395 | 0.32 | enough cells in well | 216
Lrrc58 | SID315481249 | 0.2 | enough cells in well | 138
Or12j3 | SID315480185 | 0.59 | enough cells in well | 103
Ifna12 | SID315479620 | -0.37 | enough cells in well | 190
Man2a2 | SID315477114 | 3.31 (active) | enough cells in well | 313
C1qtnf6 | SID315474609 | -0.88 | enough cells in well | 91.1
Carm1 | SID315471968 | 0.63 | enough cells in well | 178
Adss2 | SID315465335 | -0.48 | enough cells in well | 122
Nlrp10 | SID315479744 | 0.13 | enough cells in well | 252
Rnf13 | SID315470289 | 0.27 | enough cells in well | 122
Prdm2 | SID315476915 | – | fewer than 50 cells per well; well left out of calls | 84.2
Sirt2 | SID315472097 | 1.51 | enough cells in well | 451
Mcmdc2 | SID315479518 | 0.62 | enough cells in well | 185
Phf14 | SID315475187 | – | fewer than 50 cells per well; well left out of calls | 148
Ttll1 | SID315481200 | -0.67 | enough cells in well | 92.9
